Results are given in words; binding and its absence hold for the method and conditions named. Some binding calls cover weakened binding; strength is not graded here.
Biological target: human proteasome α7 subunit (human) (UniProt P25788)
Test: crystal structure; human α7 alone, 10 mg/mL in 50 mM Tris-HCl pH 7.4, 150 mM NaCl; crystals in 24% PEG400, 100 mM Tris-HCl pH 7.5, 0.2 M MgCl2, 20 °C; one tetradecamer per asymmetric unit; both purified

binding: binds
Substance: human proteasome α7 subunit (from UniProt P25788 1-255)
